Measured values as given in patent US20230338463A1, “ICD PEPTIDE AND USE THEREOF FOR HAVING CYTOTOXIC ACTIVITY ON CANCER CELLS” (NATIONAL TSING HUA UNIVERSITY, priority 2022, published 2023).
At least one peptide structure holds a part that was inferred or is arguable (an end, a ring closure or a residue). Non-standard residues stand in square brackets, D forms with d. Residues, ends and D or L forms follow the SMILES beside them. Bip = N[C@@H](Cc1ccc(-c2ccccc2)cc1)C(=O)O; Dip = N[C@H](C(=O)O)C(c1ccccc1)c1ccccc1

Columns and labels:
[1] = test system: MN-11 cells; test: Luciferin-luciferase extracellular ATP, MN-11; format: cell-based, murine
Description: On the other hand, MN-11 cells were seeded at the density of 25,000 cells/ well in the 96 well plate and allowed to adhere for 24 hours. Cells were treated with Nal-P-113, Bip-P-113 and Dip-P-113 at 2× IC50 for 0.5, 1, 1.5, and 2 hours. Untreated cells served as the control group. After being treated for different time points (0.5, 1, 1.5, and 2 hours), the supernatant of cells was analyzed using the ENLITEN ATP luciferase assay kit (Promega, Madison, WI, USA). The level of the extracellular ATP chemiluminescence was measured at 560 nm using the Wallac VICTOR 3 Multilabel plate reader (PerkinElmer, Shelton, CT, USA).
ATP release from MN-11 cells were measured using the luciferin-luciferase assay after peptide (2 × IC50) treatment (FIGS. 6B-6D). Nal-P-113 and Dip-P-113 reached the relative light unit (~ 11,000 RLU) peak at 0.5-hour, and Bip-P-113 reached the highest peak at 1 hour (~ 13,000 RLU).

[2] = test system: MN-11 cells; test: Extracellular cytochrome c ELISA, MN-11; format: cell-based, murine
Description: Untreated cells were used as a control. Results are presented as mean ± SD of three independent experiments. **P<0.01; ***P<0.001 compared with control.
Not only that the amount of supernatant cytochrome c release from MN-11 cells was measured by ELISA assay to reveal peptide induced mitochondrial DAMPs. Five time points (0.5, 1, 1.5, 2 and 4 hours) were used to quantify the amount of cytochrome c released and the results were shown in FIGS. 8A-8C. Nal-P-113 (FIG. 8A) and Dip-P-113 (FIG. 8C) induced a relatively high amount of cytochrome c compared to Bip-P-113 (FIG. 8B). In the Nal-P-113 (FIG. 8A) treated group, the amount of cytochrome c release has come to a maximal value of nearly 25 ng/mL at 2 hours while the minimum value of 10 ng/mL at 30 minutes has been observed. The highest amounts of cytochrome c detected in the supernatant for Dip-P-113 (FIG. 8C) was around 35 ng/mL at 4 hours and the lower amount around 18 ng/mL at 30 minutes.

[3] = test system: MN-11 cells; test: Extracellular HMGB1 Western blot, MN-11; format: cell-based, murine
Description: On the other hand, The MN-11 cells were seeded at the density of 1 × 10^5 cells/well and left to adhere for 24 hrs. […] After treatment of the peptides, the supernatant and lysate of the cells were collected separately for further experiments. The supernatant was collected after centrifugation at the speed of 1,400 ×g. The cell lysate was washed twice using PBS before the sonication of the pellet using bio-disruptor, and the disrupted pellet was centrifuged again for 10 minutes under 14,000 rpm at 4° C. The concentration of the samples was quantified using the Bradford assay. Both supernatants and cell lysate were loaded and run on the sodium dodecyl sulfate polyacrylamide gel electrophoresis (SDS-PAGE), and then electro transferred to a polyvinylidene difluoride (PVDF) membrane (Merck-Millipore, Burlington, Massachusetts, United States) in electro-blot system, 30 V, 400 mA, for 75 mins. The membrane was incubated in blocking buffer (5% skim milk, TBST buffer) for 1 hour in room temperature and washed in TBST buffer three times. The anti-HMGB 1 antibody (Abcam, Cambridge, UK, ab18256) will be the primary antibody and incubated overnight at 4° C. in the dilution ratio of 1: 1000. The secondary antibody of rabbit (diluted in 1: 10000) was incubated following the rinsing with PBST three times for 2 hours the next day in the room temperature before being developed using luminol reagent and imaged by a detected system (ImageQuant LAS 4000 mini).

[4] = test system: PC 9 cells; test: Luciferin-luciferase extracellular ATP, PC 9; format: cell-based, human; conditions: for ATP release, highest value (relative light unit): PC 9, 2 × IC50, peak at 0.5 hour
Description: The ATP release from cancer cells were measured using the luciferin-luciferase assay as ATP release had been the iconic feature for immunogenic cell death (ICD).
PC 9 cells were seeded in the 96 well plate at the density of 10,000 cells/ well and allowed to adhere for 48 hours in the condition described previously for MTT assay. […] All of the three ICD peptides were dissolved in the serum-free RPMI 1640 medium for the cells’ treatment. Cells were treated with serum-free RPMI 1640 medium containing PBS as the control group. After being treated for 0.5, 1, 1.5, and 2 hours, the supernatant of cells was collected separately and stored at -20° C. before the ATP assay. The aliquot of reconstituted rL/L reagent in the ENLITEN ATP assay kit (Promega, Madison, WI, USA) was incubated at room temperature for one hour before using. The collected supernatant of the cells was centrifuged at the speed of 500 xg for 10 minutes and took out 100 µL of the supernatant into the black 96 well plate with clear bottom to avoid cross-talk between wells. As the luciferase reaction will begin immediately upon addition of the reconstituted rL/L reagent into the samples, the row of samples was processed individually by adding the rL/L reagent and began the light output measurement. Measurement of the extracellular ATP chemiluminescence was completed using the Wallac VICTOR 3 Multilabel plate reader (PerkinElmer, Shelton, CT, USA)

[5] = test system: PC 9 cells; test: Extracellular HMGB1 Western blot, PC 9; format: cell-based, human
Description: HMGB 1 is a chromatin-binding protein and plays an important role as an indicator in the peptide induced immunogenic cell death. In one embodiment, the PC 9 cells were seeded at the density of 2 × 10^4 cells/well under the culture condition in 6-well plate as mentioned earlier in the cell viability determination and left to adhere for 48 hrs. […] The ICD peptides used were dissolved thoroughly in the serum-free medium (RPMI 1640) before treating the cells.
After the treatment of ICD peptides, the supernatant and lysate of the cells were collected separately for the further experiment. The supernatant was centrifuged at the speed of 1,500 RCF while the cell lysate was undergoing the centrifugation at 14,000 rpm for 5 minutes under the temperature of 4° C. Then, the pellet collected from the supernatant and supernatant of centrifuged cell lysate were discarded. The harvested pellet of cell lysate was washed twice using 200 µL PBS each time preliminarily the sonication of the pellet using bio-disruptor. The disrupted pellet was centrifuged again for 10 minutes under 14,000 rpm and 4° C.
The concentration of the samples was quantified using the commercially available protein quantification assay such as Bradford assay to make sure the amount of the protein was equally loaded in each of the well for SDS-PAGE gel.
The transfer process from polyacrylamide gel to PVDF membrane was performing for 75 minutes under 30 V and 400 mA as well as semi-dry condition. PBST buffer was used to wash the PVDF membrane three times after the transfer process.
The anti-HMGB1 antibody (Abcam, Cambridge, UK, ab18256) will be the primary antibody and incubated overnight at 4° C. in the dilution ratio of 1: 1000. The secondary antibody of rabbit (diluted in 1: 10000) was incubated following the rinsing with PBST three times for 2 hours the next day in the room temperature before being developed using luminol reagent and imaged by ImageQuant LAS 4000.

Structure (SMILES) | ATP release, highest peak ([1]; MN-11, 2 × IC50, peak at 1 hour) | cytochrome c detected in supernatant ([2]; MN-11, 2× IC50, 0.5-4 hours) | HMGB1 in supernatant ([3]; MN-11, 2× IC50, 1 hour) | ATP release, lowest value ([4]; PC 9, 2 × IC50, at 2 hours) | ATP release, highest value (relative light unit) [4] | HMGB1 in supernatant ([5]; PC 9, 2 × IC50, 1 hour) | HMGB1 in supernatant ([5]; PC 9, 2 × IC50, 2 hours) | HMGB1 in supernatant ([5]; PC 9, 2 × IC50, 4 hours) | ATP release, relative light unit peak ([1]; MN-11, 2 × IC50, peak at 0.5-hour) | cytochrome c release, minimum / lower amount ([2]; MN-11, 2× IC50, at 30 minutes) | highest amount of cytochrome c detected in the supernatant ([2]; MN-11, 2× IC50, at 4 hours) | HMGB1 in supernatant ([3]; MN-11, 2× IC50, 4 hours)
CC(=O)N[C@@H](C)C(=O)N[C@@H](CCCCN)C(=O)N[C@@H](CCCNC(=N)N)C(=O)N[C@@H](Cc1ccc(-c2ccccc2)cc1)C(=O)N[C@@H](Cc1ccc(-c2ccccc2)cc1)C(=O)NCC(=O)N[C@@H](Cc1ccc(O)cc1)C(=O)N[C@@H](CCCCN)C(=O)N[C@@H](CCCNC(=N)N)C(=O)N[C@@H](CCCCN)C(=O)N[C@@H](Cc1ccccc1)C(=O)N[C@@H](Cc1ccc(-c2ccccc2)cc1)C(N)=O [SEQ ID NO:4, Ac-AKR Bip Bip GYKRKF Bip-NH2] (Ac-AKR[Bip][Bip]GYKRKF[Bip]-NH2) | ~ 13,000 RLU | very low amount (similar to the control group) | observed in the supernatant | around 1,500 RLU | lower than 5,000 RLU | nothing is observed | can hardly detected | not detectable |  |  |  | 
CC(=O)N[C@@H](C)C(=O)N[C@@H](CCCCN)C(=O)N[C@@H](CCCNC(=N)N)C(=O)N[C@H](C(=O)N[C@H](C(=O)NCC(=O)N[C@@H](Cc1ccc(O)cc1)C(=O)N[C@@H](CCCCN)C(=O)N[C@@H](CCCNC(=N)N)C(=O)N[C@@H](CCCCN)C(=O)N[C@@H](Cc1ccccc1)C(=O)N[C@H](C(N)=O)C(c1ccccc1)c1ccccc1)C(c1ccccc1)c1ccccc1)C(c1ccccc1)c1ccccc1 [SEQ ID NO: 5, Ac-AKR Dip Dip GYKRKFDip-NH2] (Ac-AKR[Dip][Dip]GYKRKF[Dip]-NH2) |  |  | observed in the supernatant |  | around 10,000 RLU | nothing is observed | can be detected | obviously be seen | ~ 11,000 RLU | around 18 ng/mL | around 35 ng/mL | could be hardly detected
